The list is a part of this screen's results and no random one: it gathers tests that were run many times, whatever their T/C, doses with no T/C, and many T/C values between a quarter and a half above the control. Further doses and runs are listed elsewhere. T/C: endpoint of the treated group in % of that of the vehicle group. Some entries give survivors of the animals treated and no T/C: the source files T/C as zero there, which appears to mark a toxic dose or a test without result, not a measured value. Some doses without a T/C left all or most animals alive at the check, yet need not have been tolerated: the source hardly ever lists a survival T/C far under the control, and the zero likely stands for such cases as well. Counts of survivors are from the toxicity check (mostly the fifth day) where no day follows; animals may have died later. Schedule codes are those of the source, read here as Q, the interval in days (D) or hours (H), X, the number of doses. Some doses were run more than once; their values stand side by side, smallest first. For survival time, this PubChem deposit counts one and a half times the control or more as active, and values a quarter to a half above the control carry no call in these data; other NCI protocols may use other cut-offs. Counts like (3×) count equal records among those shown. Some T/C values carry the count of animals alive at the toxicity check (mostly the fifth day); where none is given, no animal had died by that day.
System: CD2F1 mice, L1210 leukemia ip, survival T/C
Assay: NCI In Vivo Anticancer Drug Screen. Data for tumor model L1210 Leukemia (intraperitoneal) in CD2F1 (CDF1) mice
Settings: higher T/C = longer survival
Outline: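 Antitumor effect is scored in animals hosting a serially transplanted tumor. Values compare compound-dosed animals against vehicle-only controls as a simple quotient.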

[1] = T/C endpoint: mean survival time, dose: 100.0 mg/kg/injection, schedule: Q04DX003 (ip), vehicle: saline with Tween-80
[2] = T/C endpoint: mean survival time, dose: 200.0 mg/kg/injection, schedule: Q04DX003 (ip), vehicle: saline with Tween-80
[3] = T/C endpoint: mean survival time, dose: 400.0 mg/kg/injection, schedule: Q04DX003 (ip), vehicle: saline with Tween-80

SMILES: CC(C)(C)OC(=O)N/N=C1\CC2CCC1C2 (configuration not stated)
- survivor count (T/C endpoint: mean survival time, dose: 50.0 mg/kg/injection, schedule: Q01DX009 (ip), vehicle: saline with Tween-80): 5 of 6
- survivor count (T/C endpoint: mean survival time, dose: 100.0 mg/kg/injection, schedule: Q01DX009 (ip), vehicle: saline with Tween-80): 2 of 6

SMILES: CC(=O)OCC1OC(n2ncc(=O)[nH]c2=O)C(OC(C)=O)C1OC(C)=O (configuration not stated)
- T/C (T/C endpoint: mean survival time, dose: 12.5 mg/kg/injection, schedule: Q01DX009 (ip), vehicle: saline): 133 % of control [5 of 6 alive]
- T/C (T/C endpoint: mean survival time, dose: 25.0 mg/kg/injection, schedule: Q01DX009 (ip), vehicle: saline): 133 % of control
- T/C (T/C endpoint: mean survival time, dose: 50.0 mg/kg/injection, schedule: Q01DX009 (ip), vehicle: saline): 133 % of control [5 of 6 alive]
- T/C (T/C endpoint: mean survival time, dose: 100.0 mg/kg/injection, schedule: Q01DX009 (ip), vehicle: saline): 138 % of control
- T/C (T/C endpoint: mean survival time, dose: 100.0 mg/kg/injection, schedule: Q03HX024 (ip), vehicle: saline): 134 % of control
- T/C (T/C endpoint: mean survival time, dose: 200.0 mg/kg/injection, schedule: Q01DX009 (ip), vehicle: saline): 135 % of control
- survivor count (T/C endpoint: mean survival time, dose: 200.0 mg/kg/injection, schedule: Q03HX024 (ip), vehicle: saline): 3 of 6
- T/C (T/C endpoint: median survival time, dose: 50.0 mg/kg/injection, schedule: Q01DX005 (ip), vehicle: saline with Tween-80): 108, 109, 111, 112, 113 (2×), 114, 115 (2×), 120, 125 % of control
- T/C (T/C endpoint: median survival time, dose: 50.0 mg/kg/injection, schedule: Q01DX009 (ip), vehicle: saline with Tween-80): 111, 120, 121, 134, 135, 138, 140, 144, 150, 156, 166 % of control
- T/C (T/C endpoint: median survival time, dose: 100.0 mg/kg/injection, schedule: Q01DX005 (ip), vehicle: saline with Tween-80): 110, 111, 112, 112 [4 of 6 alive], 113, 114, 115, 117, 119, 120, 121 % of control
- T/C (T/C endpoint: median survival time, dose: 100.0 mg/kg/injection, schedule: Q01DX009 (ip), vehicle: saline with Tween-80): 115, 127, 128, 134, 137, 141, 142 [5 of 6 alive], 150, 152, 156, 162 % of control
- T/C (T/C endpoint: median survival time, dose: 200.0 mg/kg/injection, schedule: Q01DX005 (ip), vehicle: saline with Tween-80): 112, 114, 115, 116, 119 (2×), 121 (2×), 122, 123, 132 % of control
- T/C (T/C endpoint: median survival time, dose: 200.0 mg/kg/injection, schedule: Q01DX009 (ip), vehicle: saline with Tween-80): 116, 127, 131, 132, 134, 134 [5 of 6 alive], 136, 141, 142, 143, 158 % of control
- T/C (T/C endpoint: median survival time, dose: 400.0 mg/kg/injection, schedule: Q01DX005 (ip), vehicle: saline with Tween-80): 112, 114 (2×), 117, 119, 121 (2×), 123, 128, 132, 138 % of control
- T/C (T/C endpoint: median survival time, dose: 400.0 mg/kg/injection, schedule: Q01DX009 (ip), vehicle: saline with Tween-80): 124, 126, 129, 135, 141, 142 (2×), 144 [5 of 6 alive], 150, 152, 158 % of control
- T/C (T/C endpoint: median survival time, dose: 800.0 mg/kg/injection, schedule: Q01DX005 (ip), vehicle: saline with Tween-80): 114, 117 (2×), 119 [5 of 6 alive], 121, 122, 124, 125, 127 [5 of 6 alive], 129 [5 of 6 alive], 130 % of control
- T/C (T/C endpoint: median survival time, dose: 800.0 mg/kg/injection, schedule: Q01DX009 (ip), vehicle: saline with Tween-80): 120, 125, 126, 128, 136, 137, 141, 144, 150, 155, 161 % of control

SMILES: COC1NC(=O)NC(=O)C1=[N+]=[N-] (configuration not stated)
- T/C (T/C endpoint: mean survival time, dose: 5.0 mg/kg/injection, schedule: Q01DX009 (ip), vehicle: saline with Tween-80): 135 % of control
- T/C (T/C endpoint: mean survival time, dose: 6.6 mg/kg/injection, schedule: Q01DX009 (ip), vehicle: saline with Tween-80): 127 % of control
- T/C (T/C endpoint: mean survival time, dose: 10.0 mg/kg/injection, schedule: Q01DX009 (ip), vehicle: saline with Tween-80, evaluated on day 20): 146 % of control
- T/C (T/C endpoint: mean survival time, dose: 10.0 mg/kg/injection, schedule: Q01DX009 (ip), vehicle: saline with Tween-80, evaluated on day 30): 142 % of control
- survivor count (T/C endpoint: mean survival time, dose: 15.0 mg/kg/injection, schedule: Q01DX009 (ip), vehicle: saline with Tween-80): 3 of 6
- survivor count [1]: 0 of 6
- survivor count [2]: 0 of 6
- survivor count [3]: 0 of 6

SMILES: C=C1COC(O)(C2OCOC(C3CC(=O)NC(=O)C3)C2O)C1C (configuration not stated)
- T/C (T/C endpoint: median survival time, dose: 16.0 micrograms/kg/injection, schedule: Q01DX009 (ip), vehicle: water): 133 % of control
- T/C (T/C endpoint: median survival time, dose: 32.0 micrograms/kg/injection, schedule: Q01DX009 (ip), vehicle: water): 133 and 135 % of control
- survivor count (T/C endpoint: median survival time, dose: 64.0 micrograms/kg/injection, schedule: Q01DX009 (ip), vehicle: saline): 4 of 6
- survivor count (T/C endpoint: median survival time, dose: 64.0 micrograms/kg/injection, schedule: Q01DX009 (ip), vehicle: water): 2 of 6 and 3 of 6
- survivor count (T/C endpoint: median survival time, dose: 128.0 micrograms/kg/injection, schedule: Q01DX009 (ip), vehicle: water): 0 of 6

SMILES: Cc1ccc(C)c(NC(=O)NCc2ccccc2)c1
- survivor count (T/C endpoint: mean survival time, dose: 400.0 mg/kg/injection, schedule: Q01DX009 (ip), vehicle: saline with Tween-80): 2 of 6

SMILES: CC(=O)OCC1OC(n2cnc3c(=S)nc(N)[nH]c32)CC1OC(C)=O (configuration not stated)
- T/C (T/C endpoint: mean survival time, dose: 2.5 mg/kg/injection, schedule: Q01DX005 (ip), vehicle: saline with Tween-80): 125 % of control
- T/C (T/C endpoint: mean survival time, dose: 5.0 mg/kg/injection, schedule: Q01DX005 (ip), vehicle: saline with Tween-80): 137 % of control
- T/C (T/C endpoint: mean survival time, dose: 10.0 mg/kg/injection, schedule: Q01DX005 (ip), vehicle: saline with Tween-80): 137 % of control
- survivor count (T/C endpoint: mean survival time, dose: 40.0 mg/kg/injection, schedule: Q01DX005 (ip), vehicle: saline with Tween-80): 7 of 7

SMILES: O=[N+]([O-])c1ccc2nc(Cl)sc2c1
- survivor count [2]: 3 of 6
- survivor count [3]: 0 of 6

SMILES: Cc1cc(N=CN(C)C)c2ccccc2n1
- survivor count (T/C endpoint: mean survival time, dose: 50.0 mg/kg/injection, schedule: Q01DX009 (ip), vehicle: other): 1 of 6
- survivor count (T/C endpoint: mean survival time, dose: 100.0 mg/kg/injection, schedule: Q01DX009 (ip), vehicle: other): 0 of 6

SMILES: Cc1ccc(-c2cc(O)cc(-c3ccc(C)cc3C)c2O)c(C)c1
- survivor count (T/C endpoint: mean survival time, dose: 100.0 mg/kg/injection, schedule: Q01DX001 (ip), vehicle: saline with Tween-80): 6 of 6
- survivor count (T/C endpoint: mean survival time, dose: 200.0 mg/kg/injection, schedule: Q01DX001 (ip), vehicle: saline with Tween-80): 6 of 6

SMILES: CCCCCCCCCCCCCCCCCCOCC(COP(=O)([O-])OCC[N+](C)(C)C)OC (configuration not stated)
- survivor count (T/C endpoint: median survival time, dose: 100.0 mg/kg/injection, schedule: Q01DX009 (ip), vehicle: suspension in saline): 0 of 6

SMILES: COC(=O)C1C(O)C(C)C(O)C(C)(O)C=C(C)C2=C3C(=C(C)C(=O)c4c(O)c(c(C)c(OC(C)=O)c43)NC(=O)C(C)=C/C=C\C(C)(O)C(O)C(C)C1O)OCO2 (configuration not stated)
- survivor count [2]: 3 of 6
- survivor count [3]: 0 of 6

SMILES: COc1ccccc1C(=Nc1ccccc1)N(O)c1ccccc1
- survivor count (T/C endpoint: mean survival time, dose: 18.8 mg/kg/injection, schedule: Q01DX001 (ip), vehicle: saline): 1 of 6
- survivor count (T/C endpoint: mean survival time, dose: 37.5 mg/kg/injection, schedule: Q01DX001 (ip), vehicle: saline): 1 of 6
- survivor count (T/C endpoint: mean survival time, dose: 75.0 mg/kg/injection, schedule: Q01DX001 (ip), vehicle: saline): 0 of 6
- survivor count (T/C endpoint: mean survival time, dose: 100.0 mg/kg/injection, schedule: Q01DX001 (ip), vehicle: saline): 3 of 6
- survivor count (T/C endpoint: mean survival time, dose: 200.0 mg/kg/injection, schedule: Q01DX001 (ip), vehicle: saline): 1 of 6
- survivor count (T/C endpoint: mean survival time, dose: 400.0 mg/kg/injection, schedule: Q01DX001 (ip), vehicle: saline): 0 of 6

SMILES: O=C(/C=C(\NC1CCCCC1)C(=O)c1ccccc1)c1ccccc1
- survivor count [1]: 6 of 6

SMILES: COC12[C@@H](COC(N)=O)C3=C(C(=O)C(C)=C(NCCSSCCNC4=C(C)C(=O)C5=C(C4=O)C(COC(N)=O)[C@]4(OC)C6[C@@H](CN54)N6C)C3=O)N1C[C@@H]1[C@H]2N1C (some centres not stated)
- T/C (T/C endpoint: mean survival time, dose: 12.0 mg/kg/injection, schedule: Q01DX001 (ip), vehicle: distilled water + Tween-80): 127 % of control
- T/C (T/C endpoint: mean survival time, dose: 24.0 mg/kg/injection, schedule: Q01DX001 (ip), vehicle: distilled water + Tween-80): 129 % of control
- T/C (T/C endpoint: mean survival time, dose: 48.0 mg/kg/injection, schedule: Q01DX001 (ip), vehicle: distilled water + Tween-80): 136 % of control [5 of 6 alive]

SMILES: CC(C)(C)CC(C)(C)c1ccc(OCCOc2ccc(C(=O)Nc3ccc([N+](=O)[O-])cc3)cc2)cc1
- survivor count (T/C endpoint: mean survival time, dose: 400.0 mg/kg/injection, schedule: Q01DX009 (ip), vehicle: Klucel (hydroxypropylcellulose) (HPC)): 4 of 6

SMILES: O=C(NC1=C(N2CC2)C(=O)C(NC(=O)OCCO)=C(N2CC2)C1=O)OCCO
- T/C (T/C endpoint: mean survival time, dose: 1.5 mg/kg/injection, schedule: Q01DX009 (ip), vehicle: saline): 133 and 134 % of control
- T/C (T/C endpoint: mean survival time, dose: 3.0 mg/kg/injection, schedule: Q01DX009 (ip), vehicle: saline): 145 and 149 % of control
- T/C (T/C endpoint: mean survival time, dose: 6.0 mg/kg/injection, schedule: Q01DX009 (ip), vehicle: saline): 148 % of control (2×)

SMILES: CCN(CC)Cc1ccccn1
- survivor count (T/C endpoint: mean survival time, dose: 200.0 mg/kg/injection, schedule: Q04DX003 (ip), vehicle: saline): 2 of 6
- survivor count (T/C endpoint: mean survival time, dose: 400.0 mg/kg/injection, schedule: Q04DX003 (ip), vehicle: saline): 0 of 6
